# Assay results from patent US12186377B2, “Modulation of oxidative stress and amino acid metabolism for the treatment or prevention of diseases and disorders” (NEW YORK UNIVERSITY, priority 2019, dated 2025).
# At least one structure is not confirmed: it was looked up by name or label, or the drawing left a doubt.
# What was measured:
# Type in all cases: cell-based, mouse
# [1] = system: wildtype vs Keap1 mutant cells; assay: GC/MS analysis of polar metabolites and stable isotope tracing in cells; settings: 500 nM Erastin or 6 mM glutamate, FIG. 6B, 6C
# [2] = system: KPKJ Vector (Keap1 KO) cells transduced with sgG6pd and sgPGD; assay: Colony formation assay, metabolite rescue of G6PD KO / PGD KO cells
# Source text: Colony formation assay of KPKJ Vector (Keap1 KO) cells transduced with sgTom, sgG6pd and sgPGD, and rescued with several metabolites.
# [3] = system: wildtype and Keap1 mutant Kras^G12D/+;p53^−/− lung adenocarcinoma cell lines; assay: Cell proliferation assay (crystal violet), drug or amino acid deprived media; settings: 500 nM Erastin or 6 mM glutamate
# Method: For cell proliferation assays conducted under different drug or media conditions as indicated, cells growing in DMEM were trypsinized, counted and plated into 12 well plate dishes (BD/Falcon) in 1 mL of RPMI media. […] For deprivation experiments, cells were washed with PBS and media was replaced with 1 mL of complete RPMI or RPMI lacking indicated amino acid and supplemented with 10% dialyzed FBS and cells were re-treated with indicated drugs. RPMI was prepared from a powder mix without amino acids (US Biological) according to manufacturer's instructions. All other amino acids besides those indicated were added to the RPMI mixture in the same concentrations present in RPMI-1640 formulation (Cellgro, Corning). Proliferation experiments were carried out for 5 days post drug treatment and collected by staining. Cells were stained with a 0.5% crystal violet (Fisher) solution in 20% methanol. Plates were then washed, dried, and crystal violet was eluted in 400 μL of 10% acetic acid.
SMILES,intracellular glutamate levels [1],G6PD KO rescue (colony formation) ([2]; FIG. 18),"rescue of cell growth under L-asparaginase treatment ([3]; Keap1 mutant cells, FIG. 4D)","rescue of cell growth in media lacking serine or asparagine ([3]; Keap1 mutant cells, FIG. 6D, 6E)","rescue of cell growth in serine deprivation in PSAT knockout cells ([3]; sgPSAT vs sgCtl, FIG. 7C, 8B)","G6PD KO rescue (colony formation) ([2]; FIG. 18, listed as Pyruvate)"
CCOc1ccccc1-n1c(C(C)N2CCN(C(=O)COc3ccc(Cl)cc3)CC2)nc2ccccc2c1=O (stereo not shown) [Erastin],significantly increased intracellular glutamate levels,Partially rescue,completely rescue Keap1 mutant cell growth,completely rescue Keap1 mutant cell growth,dependent on the presence of PSAT,
CC(=O)C(=O)O [pyruvate],,Completely rescue,,,,can rescue G6PD KO cells
